# Measured values from US10240255B2 (priority 2007, dated 2019).
# Tested on: endothelial cells and PBMC
smiles,measurement,value
C=C(CC)C(=O)c1ccc(OCC(=O)O)c(Cl)c1Cl [ethacrynic acid],toxicity to endothelial cells and PBMC,toxicity
